Measurements published in US20180237508A1.
Results are given in words; binding and its absence hold for the method and conditions named. Some binding calls cover weakened binding; strength is not graded here.

The chains behind the UniProt entries cited, without tags or fusion partners. Residues count along the entry.
UniProt P05787, residues 1-393: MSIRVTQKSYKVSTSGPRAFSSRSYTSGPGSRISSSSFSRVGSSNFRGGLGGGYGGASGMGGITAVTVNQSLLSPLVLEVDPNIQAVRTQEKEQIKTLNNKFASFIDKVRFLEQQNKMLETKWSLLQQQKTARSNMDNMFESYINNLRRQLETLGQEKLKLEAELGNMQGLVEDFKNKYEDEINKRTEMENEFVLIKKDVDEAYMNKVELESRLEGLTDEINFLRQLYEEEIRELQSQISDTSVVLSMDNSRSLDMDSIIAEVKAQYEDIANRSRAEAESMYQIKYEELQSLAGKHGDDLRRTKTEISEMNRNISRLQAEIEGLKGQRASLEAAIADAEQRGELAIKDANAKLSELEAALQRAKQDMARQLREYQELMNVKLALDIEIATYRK

Target: C-terminal truncated form of human CK8 protein (CK8-C) (human) (UniProt P05787)
Assay: western blot, Isreco-1 lysate, mD-A10 1 ug/mL

- binding: binds
B1: Murine monoclonal antibody D-A10 (antibody, V domains shown)
VH: EVQLLETGGGLVQPGGSRGLSCEGSGFTFSGFWMSWVRQTPGKTLEWIGDINSDGSAIKYAPSIKDRFTIFRDNDKSTLYLQMSNVRSEDTATYFCIAHYSGGGFAYWGQGTSVTVSS
VL: NIVMTQAAPSVPVTPGESVSISCRSSKSLLYSNGNTYLYWFLQRPGQSPQRLIYYMSNLASGVPDRFSGRGSGTDFTLRISRVEAEDVGVYYCMQSLEYPFTFGGGTKLEIK
